Laboratory results taken from PubChem BioAssay AID588590 (National Center for Advancing Translational Sciences (NCATS), 2011).
The campaign covered roughly 390,000 compounds. About 4,000 (1%) were called active. The inconclusive results got no clear call from the source; some entries with a clear call stand among them for comparison. Calls follow the shape of the dose curve; as a rule, active = well fitted inhibition curve with a large enough effect; inconclusive = small, poorly fitted or top-dose-only effect, or another doubt; inactive = no such curve, though single readings can be large or run the other way. Where the call is inconclusive, the potency comes from a doubtful curve fit.

The chains behind the UniProt entries cited, without tags or fusion partners. Where a name states a change or a piece, a line headed by the entry shows the natural chain unless it says otherwise.
UniProt Q9UNA4: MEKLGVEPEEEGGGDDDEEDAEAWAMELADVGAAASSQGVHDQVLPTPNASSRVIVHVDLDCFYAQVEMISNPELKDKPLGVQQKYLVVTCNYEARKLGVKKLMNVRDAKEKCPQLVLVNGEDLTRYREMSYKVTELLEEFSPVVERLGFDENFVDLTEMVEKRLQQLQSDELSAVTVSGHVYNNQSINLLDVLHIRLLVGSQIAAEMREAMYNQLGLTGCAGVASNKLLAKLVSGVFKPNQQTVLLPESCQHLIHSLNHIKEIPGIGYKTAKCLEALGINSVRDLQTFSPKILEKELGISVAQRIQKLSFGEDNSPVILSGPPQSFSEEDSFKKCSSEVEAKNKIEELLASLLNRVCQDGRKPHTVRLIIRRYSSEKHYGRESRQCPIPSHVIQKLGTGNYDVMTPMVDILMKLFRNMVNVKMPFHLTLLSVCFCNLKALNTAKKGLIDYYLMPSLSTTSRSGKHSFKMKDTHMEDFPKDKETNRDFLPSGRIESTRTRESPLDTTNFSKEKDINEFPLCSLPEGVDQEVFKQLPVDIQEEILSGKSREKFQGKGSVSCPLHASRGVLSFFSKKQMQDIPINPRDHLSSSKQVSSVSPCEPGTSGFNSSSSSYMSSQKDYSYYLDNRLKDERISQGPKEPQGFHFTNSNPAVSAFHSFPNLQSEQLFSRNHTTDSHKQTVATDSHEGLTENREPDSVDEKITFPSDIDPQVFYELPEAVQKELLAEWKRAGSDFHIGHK

biological target: DNA polymerase iota (Homo sapiens) (UniProt Q9UNA4); test: qHTS for Inhibitors of Polymerase Iota; conditions: Pol iota fluorescent replication assay, 10 min; series mostly up to 115 µM; activity, negative = inhibition: at the top concentration
How it was run: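 Pol iota at 10 nM preincubated 15 min with compounds at room temperature; reaction started with fluorescent substrate, 50 nM final. Fluorescence read kinetically at 0 and 10 min; buffer-only wells as negative control.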
Potency is read from the fitted curve at half-maximal effect.

Row | Structure (SMILES) | Potency | activity, negative = inhibition
1 | O=c1cc(-c2ccc(F)cc2)[nH][nH]1 | active: 1.78 µM | –
2 | CC[C@@H](C(=O)[C@@H](C)[C@@H](O)[C@H](C)CCc1ccc(C)c(O)c1C(=O)O)[C@H]1O[C@](CC)([C@H]2CC[C@](O)(CC)[C@H](C)O2)C[C@@H]1C | inconclusive: 31.6 µM [inhibitor, single point] | –
3 | O=C(CCCCCNC(=O)c1ccccc1Cl)N/N=C/c1ccco1 | inconclusive: 39.8 µM [inhibitor, partial curve, poor fit] | –
4 | Clc1ccccc1C1SCC2Nc3ccccc3CN21 (stereo unspecified) | inconclusive: 39.8 µM [inhibitor, single point] | –
5 | Cc1ccc2nc(Cl)c3cc(C(=O)N(C)C4CCCCC4)sc3c2c1 | – | inactive: 23.5%
6 | Cc1ccc[n+](-c2[nH]c(=O)sc2/C=N/NC(=O)c2ccccc2[O-])c1 | inconclusive: 100 µM [inhibitor, partial curve, poor fit] | –
7 | Cc1ccc(C2=NC(C(F)(F)F)(C(F)(F)F)c3c(n(-c4ccc(F)cc4)c(=O)[nH]c3=O)N2)cc1 | – | inactive: -12.7%
8 | O=C(OCc1cc(=O)n2c(n1)sc1ccccc12)c1cccc(O)c1 | active: 44.7 µM | –
9 | Cc1ccc(C(=O)NNC(=O)c2ccc(S(=O)(=O)N3CCCCC3)cc2)cc1 | inconclusive: 25.1 µM [inhibitor, full curve] | –
10 | Cc1ccc(C(=O)c2c3ccc(C(F)(F)F)cc3[n+]([O-])n2CCCN)cc1 | inconclusive: 17.8 µM [inhibitor, full curve, poor fit] | –
11 | CCCCC#Cc1ccccc1CC(=O)Nc1ccccc1 | inconclusive: 12.6 µM [inhibitor, partial curve, poor fit] | –
12 | COc1ccc(/C=N/NC(=O)C(=O)/C=C2\NC3(CCCC3)Cc3ccccc32)cc1 | – | inactive: 2.59%
13 | CCOc1ncccc1C(=O)Nc1cc(S(=O)(=O)N2CCCCC2)ccc1Cl | inconclusive: 89.1 µM [inhibitor, single point] | –
14 | Cc1ccc(NC(=O)c2ccc3nc(N4CCOCC4)sc3c2)c(Cl)c1 | inconclusive: 39.8 µM [inhibitor, single point] | –
15 | CCn1c(CNC(=O)c2ccc(OC)cc2)nnc1SCC(=O)Nc1cccc(C)c1C | – | inactive: -4.8%
16 | CCOc1ccc(C(=O)CC(NCc2cccs2)C(=O)O)cc1 (stereo unspecified) | inconclusive: 0.708 µM [inhibitor, full curve, poor fit] | –
17 | COc1cc(/C=C2\SC(=O)N(c3ccc(Cl)cc3)C2=O)cc([N+](=O)[O-])c1O | active: 6.31 µM | –
18 | CC(C)CC(=O)NC(NC(=S)Nc1sc2c(c1C#N)CCCC2)C(Cl)(Cl)Cl (stereo unspecified) | inconclusive: 39.8 µM [inhibitor, partial curve, poor fit] | –
19 | CC(C)[C@H](NC(=O)c1ccccc1Cl)C(=O)Nc1nc(-c2ccccn2)cs1 | – | inactive: 172%
20 | C=CCn1c(CNC(=O)CCC)nc2ccccc21 | – | inactive: -0.227%
21 | CCCS(=O)(=O)N1CCCC(C(=O)NCc2ccco2)C1 (stereo unspecified) | inconclusive: 31.6 µM [inhibitor, single point] | –
22 | CCc1cnc2c(c1SCC(=O)Nc1ccc(Cl)cc1)c(=O)n(C)c(=O)n2C | inconclusive: 31.6 µM [inhibitor, partial curve, poor fit] | –

For convenience, some entries already given.
Row | Structure (SMILES) | Potency | activity, negative = inhibition
5 | Cc1ccc2nc(Cl)c3cc(C(=O)N(C)C4CCCCC4)sc3c2c1 | – | inactive: 23.5%
6 | Cc1ccc[n+](-c2[nH]c(=O)sc2/C=N/NC(=O)c2ccccc2[O-])c1 | inconclusive: 100 µM [inhibitor, partial curve, poor fit] | –

Exported in markdown: entries from further up.

| Row | Structure (SMILES) | Potency | activity, negative = inhibition |
| --- | --- | --- | --- |
| 5 | Cc1ccc2nc(Cl)c3cc(C(=O)N(C)C4CCCCC4)sc3c2c1 | – | inactive: 23.5% |
| 6 | Cc1ccc[n+](-c2[nH]c(=O)sc2/C=N/NC(=O)c2ccccc2[O-])c1 | inconclusive: 100 µM [inhibitor, partial curve, poor fit] | – |
| 7 | Cc1ccc(C2=NC(C(F)(F)F)(C(F)(F)F)c3c(n(-c4ccc(F)cc4)c(=O)[nH]c3=O)N2)cc1 | – | inactive: -12.7% |

Carrying on.

Row | Structure (SMILES) | Potency | activity, negative = inhibition
23 | CC(C)(C)c1ccc(C(O)CCCN2CCC(C(O)(c3ccccc3)c3ccccc3)CC2)cc1 (stereo unspecified) | inconclusive: 17.8 µM [inhibitor, partial curve] | –
24 | N#CC1=C(S)N(c2ccccc2)C(c2cccs2)NC1=O (stereo unspecified) | inconclusive: 15.8 µM [inhibitor, full curve] | –
25 | CCOc1cc(/C=C2\NC(=S)N(C)C2=O)ccc1OCc1ccc(C(=O)O)cc1 | – | inactive: -22.8%
26 | Fc1ccc(C(c2nnnn2Cc2cccs2)N2CCN(C3CCCC3)CC2)cc1 (stereo unspecified) | inconclusive: 89.1 µM [inhibitor, single point] | –
27 | COc1cccc(NC(=O)CN(C)S(=O)(=O)c2ccc3c(c2)NC(=O)CS3)c1 | inconclusive: 4.47 µM [inhibitor, full curve, poor fit] | –
28 | CCN(CC)CCOC(=O)c1ccc(NC(=O)c2ccc(Cl)c(S(=O)(=O)N3CCCCCC3)c2)cc1 | inconclusive: 5.62 µM [inhibitor, partial curve, poor fit] | –
29 | C[C@]1(O)CC(=O)C=C[C@H]1Nc1ccccc1 | inconclusive: 17.8 µM [inhibitor, full curve] | –
30 | Cn1nc(-c2ccc(Cl)cc2)c2cc(C(=O)NCCCN3CCCC3)sc21 | inconclusive: 22.4 µM [inhibitor, partial curve, poor fit] | –
31 | CC1C/C(=N\NC(=O)c2cccnc2)CC(C)(C)C1 (stereo unspecified) | inconclusive: 100 µM [inhibitor, single point] | –
32 | CCOc1cccc(-c2c(C(=O)N/N=C/c3cccs3)nnn2-c2nonc2N)c1 | active: 79.4 µM | –
33 | CC(=O)c1cccc(NC(=O)Cn2c(SCC(=O)Nc3ccc(F)cc3)nc3ccccc32)c1 | – | inactive: 4.01%
34 | Cc1cccc(S(=O)(=O)NCCNS(=O)(=O)c2cccc(C)c2)c1 | inconclusive: 89.1 µM [inhibitor, single point] | –
35 | O=c1cc(C(F)F)oc2c1ccc1ccccc12 | – | inactive: -17.1%
36 | Cc1cc(C)n2c(SC/C(O)=C(\C#N)c3nc4ccccc4[nH]3)nnc2n1 | active: 11.2 µM | –
37 | O=[N+]([O-])c1ccc(N/N=C/c2cccc(O)c2)cc1 | inconclusive: 50.1 µM [inhibitor, partial curve, poor fit] | –
38 | N#C/C(=C\c1ccc(Cl)cc1)C(=O)NCC1CCCO1 (stereo unspecified) | – | inactive: -7.23%
39 | COCCCNC(=O)CSc1nc(-c2cccc(F)c2)[nH]c1-c1ccccc1 | – | inactive: -0.921%
40 | C/C=C(\C)C(=O)NCCN1C2=NC[C@@H](C)N2C[C@H]1Cc1ccc(O)cc1 | inconclusive: 17.8 µM [inhibitor, partial curve, poor fit] | –
41 | O=C(CN1CCN(Cc2ccccc2Cl)C1=O)NCc1ccccc1Cl | – | inactive: 10.9%
42 | COc1ccc(-c2c(C#N)c(SCC(=O)Nc3ccccc3C)nc(C)c2C(=O)Nc2ccccc2)cc1OC | inconclusive: 89.1 µM [inhibitor, single point] | –
43 | COc1ccc(C(=O)SC2=NCCS2)cc1 | inconclusive: 100 µM [inhibitor, single point] | –
44 | CN(CC(=O)Nc1cccc2c1CCCC2)S(=O)(=O)c1ccc(Cl)cc1 | inconclusive: 79.4 µM [inhibitor, partial curve, poor fit] | –

Row | Structure (SMILES) | Potency | activity, negative = inhibition
45 | CCc1nc2ccc(C(=O)N(CC)CC(=O)Nc3c(F)cccc3F)cc2nc1CC | inconclusive: 14.1 µM [inhibitor, full curve, poor fit] | –
46 | CCOc1ccc(C(=O)c2cn(CC(=O)Nc3cc(OC)cc(OC)c3)c3ccc(F)cc3c2=O)cc1 | inconclusive: 7.94 µM [inhibitor, full curve, poor fit] | –
47 | C=C[C@@H]1c2cc(C)ccc2N(S(=O)(=O)c2ccc(C)cc2)[C@H](c2ccccc2)C1(C#N)C#N | inconclusive: 3.16 µM [inhibitor, full curve, poor fit] | –
48 | O=C(COC(=O)CSc1cccc2cccc(Cl)c12)Nc1ncc(C(F)(F)F)cc1Cl | inconclusive: 31.6 µM [inhibitor, partial curve] | –
49 | O=C(CNC(=O)c1ccco1)N/N=C/c1cccs1 | inconclusive: 14.1 µM [inhibitor, full curve, poor fit] | –
50 | COc1ccc(C2C3=C(CC(C)(C)CC3=O)Oc3ncn(Cc4ccco4)c(=N)c32)cc1 (stereo unspecified) | inconclusive: 25.1 µM [inhibitor, partial curve] | –
51 | Cc1ccc(NC(=O)c2ccc3c(=O)n4c(nc3c2)CCC4)cc1S(=O)(=O)N(C)C | inconclusive: 44.7 µM [inhibitor, single point] | –
52 | Cc1c(C(=O)O)sc2nc(/C=C/c3cccc(O)c3)[nH]c(=O)c12 | inconclusive: 70.8 µM [inhibitor, single point] | –
53 | Cc1c(NC(=O)Nc2ccc3c(c2)OCO3)cccc1[N+](=O)[O-] | – | inactive: 38%
54 | CCOc1ccc(NC(=O)N2CCN(S(C)(=O)=O)CC2)cc1 | inconclusive: 100 µM [inhibitor, single point] | –
55 | O=C(CSc1nc2[nH]ncc2c(=O)[nH]1)Nc1cccc(Cl)c1 | – | inactive: -8.06%
56 | Cc1cc(-n2c(C)cc(C(=O)CSc3ccc4c(c3)OCCO4)c2C)no1 | inconclusive: 22.4 µM [inhibitor, single point] | –
57 | CC1CCCN(S(=O)(=O)c2ccc(S(=O)(=O)NC(C)c3cccs3)cc2)C1 (stereo unspecified) | inconclusive: 44.7 µM [inhibitor, partial curve, poor fit] | –
58 | Cc1cc(NS(=O)(=O)c2ccc(NC(=O)c3oc4ccccc4c3C)cc2)no1 | inconclusive: 56.2 µM [inhibitor, partial curve, poor fit] | –
59 | Cc1oc(-c2cccc(Cl)c2)nc1CN1CCC(C(=O)NCc2ccco2)CC1 | – | inactive: 0.0372%
60 | N#C/C(=N\Nc1ccc(Cl)cc1)C(N)=S | – | inactive: -4.05%
61 | CC(CCc1ccccc1)NC(=O)CN1CCN(c2ccc(O)cc2)CC1 (stereo unspecified) | – | inactive: 112%
62 | CC(c1ccccc1)N1C(=O)c2cccnc2C1=O (stereo unspecified) | – | inactive: 63.3%
63 | O=C(NCCNS(=O)(=O)c1ccc(Cl)cc1)c1cc(OCC(F)(F)F)ccc1OCC(F)(F)F | inconclusive: 39.8 µM [inhibitor, single point] | –
64 | O=C(O)c1cccc(S(=O)(=O)Nc2ccccc2Cl)c1 | inconclusive: 10 µM [inhibitor, partial curve] | –
65 | CCn1c(=O)c2cc(C(=O)N(C)c3cc(C)ccc3C)sc2c2ccccc21 | inconclusive: 39.8 µM [inhibitor, single point] | –
66 | O=C(CCSCc1ccccc1F)N1CCN(c2ccc(F)cc2)CC1 | – | inactive: 22.1%
